Results reported in paper PMC7910915.
Results are given in words; binding and its absence hold for the method and conditions named. Binding seen in cells or lysates may run through a third protein.

Tests used:
[1] = target: HA-tagged RuV capsid R169A/D171A (rubella virus) (UniProt P08563); assay: co-IP; HEK293T cells co-transfected with Flag-tagged and HA-tagged capsid plasmids (1 μg each), lysed 48 hpt in IP lysis buffer (20 mM Tris, 100 mM NaCl, 0.05% n-dodecyl β-D-maltoside); IP with M2 anti-Flag and protein-A/G agarose at 4 °C for 12 h; Western blotting
[2] = target: HA-tagged RuV capsidΔB (rubella virus) (UniProt P08563); assay: as above

Substance | binding [1] | binding [2]
HA-tagged RuV capsid R169A/D171A (from UniProt P08563 1-300) | no binding | –
HA-tagged RuV capsidΔB (from UniProt P08563 1-300) | – | no binding
